Laboratory results as given in publication PMC3826745.
No constants are given. Whether binding was seen depends on the method and setting. In cells and extracts the contact can be indirect. Some entries that bind do so weakly or less than the wild type. Tags and fused reporters may be left off the sequences shown.

T1: N-terminally tagged Neurospora crassa eIF3h (Neurospora crassa) (UniProt Q7S9Y9)
T1 sequence: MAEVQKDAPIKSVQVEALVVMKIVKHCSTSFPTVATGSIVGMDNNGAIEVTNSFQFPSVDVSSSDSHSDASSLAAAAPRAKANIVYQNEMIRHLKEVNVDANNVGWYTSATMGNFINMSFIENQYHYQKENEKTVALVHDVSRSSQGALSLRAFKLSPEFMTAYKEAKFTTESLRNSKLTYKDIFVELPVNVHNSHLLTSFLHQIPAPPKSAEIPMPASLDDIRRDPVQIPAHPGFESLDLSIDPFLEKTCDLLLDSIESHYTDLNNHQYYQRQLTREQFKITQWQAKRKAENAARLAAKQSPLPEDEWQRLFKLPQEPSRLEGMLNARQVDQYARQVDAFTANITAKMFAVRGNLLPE


Molecular target: T1, N-terminally tagged Neurospora crassa eIF3h (Neurospora crassa)
Assay: co-IP; anti-FLAG affinity purification from N. crassa extracts, FLAG peptide elution, Coomassie gel; N-terminally tagged eIF3h in ΔeIF3h, N-terminally tagged eIF3k in ΔeIF3k, or heterokaryon with N-terminally tagged eIF3k and eIF3l (all 12 subunits present)

Row | Binder | binding
1 | Neurospora crassa eIF3b (protein, UniProt Q7S464 1-747) MAPSFDHLRDEDLDEDDFDVDEVDISDIREKYEVQLEQGYDAFVVVDGLPEVNEEQKPKLVKFLLKKLNTVGKTREDLIFMPMGEDGKSLRFAFVEYSSPAEAAAACRQLDLVPLDKKHTLRVNKLTDVDRYGREGRIDDEYTPPKIEEFQEKEHLRSFMADPSGRGRDQFVMFRGESVGVFWNNEKDTPENIVDRQHWTETFVQWSPLGTYLTSVHAQGVQLWGGPSWTRQRRFAHPFVNLVAFSPNEKYLVTWSNRPISIPEEGHPALSVEDDGKNYVIWDIETSKPLRSFAQLDTPAAAEGEAPKKAPKFPWPAFKWSADDKYVARLNPGQSISVYELPRMNLLDKTAIKIEGVVDFDWAPATVQRDGVKSYEQLFCFWTPEIGSNPARVGLMSIPSKQVVRSLNLFSVSDAKLHWQSEGAYLCVKVDRHSKSKKSQATTLEIFRVKEKGVPVEVVDTIKDTVINFAWEPKGDRFVIITTTEPVGATAVPPKTSVAFFCPEKAKGNAVGNFKHLRTLEKKNSNAIYWSPKGRFVVVATVANTQSSDLDFYDLDFEGEKPESDKDLTANLQLMNTADHYGVTDVEWDPSGRFVATWASAWKHSMENGYHLYDFKGEQLREEAIEKFKQFQWRPRPATLLSKEEQKAIRRNLREYSRIFEQEDAERISSADVAVVEARRRLLEEWFAWREAIRQEVAEEREIYGLPADPVADLIKAKTPELATDQEEQVIEEIMEEVLEETEEIVQ | binds
2 | Neurospora crassa eIF3a (protein, UniProt Q7RWT1 1-1059) MPPPPHQKPENVLKRAHELIGVNQAPAALTLLHEHITSKRSRNVPIASLEPVMLLLVELSVEQKKGKLAKDALYQYKNIAQNTNVATIELVLKKFIELAAEKVTAAQAKADEVQSSIEATTSNIDDLEASETPESILLATVSGEQSRDRTDRAIVTPWLKFLWEAYRTVLDILRNNARLEVLYQSTAMQAFDFCLKYTRKTEFRRLCELLRNHVQTAAKYSAQMHAINLNDPDTLQRHLETRFQQLNVAVELELWQEAFRSVEDIHTLLSLSKRPAKNVMMANYYEKLTRIFLVGENYLFHAAAWARYYNLLRQSAALIASGHSKKADNPACSDADLQRAATFVILSALSIPVISTSRSRGAMVDFDEARKNKNSRLTHLLGMAQAPTRAGLFRDALSKSLLRRAQPQIRDLYNILEVDFHPLSICQKISPILAEIGADAEMQKYILPLQQVILTRLFQQLSQVYETVDLEFVESLAQFPEPFQVTRGTIEKFIMNGNKKGDLAIRMDHATGVLSFDADVFSSAKAVHAGSSAGSAESETGSVQRLQSTPSQIVRSQLTRLAEALYTTCRYIDPSFNEARIKARDEALARAKAGAEKEHQEVLARKEIIQTRKDKASEAQAQKEKENARKKLLQEQALQQAEAARLAEEQKLREAKRLANEREQIKRKEVEALLKDMKLEELQGEDIETLDSNKIRMIKLQQLEREKNSVAEKLRITGKRLDHLERAFRKEEAKKLPEDYAKQRERDLAAYERTKAQTLKEAELKHKADVELKHRLTRLMPFYESFRSDLHERRRDEFEKRRRDAEREMEKQINARRKEAREKRIREKREREERERQLREAEERAAREKEEERKRLEARREELQRLKEEKEKEREKLREIAARQQQREEEAMARRKAEKEKLAATPSAYRPPAAAERTEAAAPPRIALAGNRPSWREREAAKAASGETAAPAPAAAEPVAERPRAAAPPAERTEAAAPPRLALAGNRPSWREREAAKAASGGGNAAAVPERSAPPLRAAAPQRAGSGRPENDRDVPPAEPLKASGAPGKYVPKWRREGA | binds
3 | Neurospora crassa eIF3c (protein, UniProt Q7SBD4 1-872) MSRFFRGGDDSSTDSSSEEEEVYTSEEEEEKVQAEDESSSEEESDEEESDEESSSDEEEGTKKKGASRFLQSDDESEEEEEEQSDDEATTKVKSAKDKRFDELESTISQIQNGQKINDWSLIANEFDKLNRQVVKLQDGSKAPKSYIKAIADLEDFMNETLAKQKVTPKKMNATNARGLNAVKQRIRKNNKEYQTQIDAYRKDADAFMESDDEVAAPKVVSKVRFEAPVVSAEQQEEDDKGFSTVDSRGKVVQYTPESILKHLRAIIESRGKKNTDRLEQIKVMETLNKVVPITPYQKIRVLQTLISARFDLGAGGAAQMPLDQWKAAERDLASLLEILEKEKDHVVVEGAEEWDDDDKLPTIPEGEKYLKVPGSVVSLIERLDDELTRSLQAIDPHTSEYIDRLTDEGSLYNTIFRGLLYYEHLRKDASLEVPQESLNRIIQRRLDHVYYKPAQVVKILEENAWKQVSAEADSEITPRSQSGDAGKLINILSNYLFENSEGIIRARAMLCQIYFLALHDEYYKSRDLMLTSHLQETIANFDIATQILYNRTLVQVGLCAFRKGLVYDAQNTLQEICGSGRQKELLAQGVMIQRYSQVTPEQERLEKQRQLPFHMHINLELLECVYLTCSMLLEIPLLAQTGSSPDVKKRIISKTYRRMLEYHERQIFTGPPENTRDHVMQASKALAAGEWKKATDFIHSIKIWDLMPNTEGIKTMLAKQIQEEGLRTYLFTYAPFYDTLAIATLSSMFELDSRKVSAVVSKMISHEELAAALDQVTETVIFRKGVELSRLQSLALTLSDKASSLIETNERTLEQKTQGSANAFSRKDNRGGGQRGGGQRGGRGGARTGGNPQRQAGGTQFTGGALGNAVRG | binds

Next, values leading:

Row | binding | Binder
4 | binds | Neurospora crassa eIF3g (protein, UniProt Q6MFP4 1-297) MAAVQQKHDWADDDELEETSTELPPPQKITNKDGSTTIIEYRLNDNGQKVKTTRRIRYITHREVVNPRVAERKSWTKFGLSVKDGAGPAPDTTSVGENIIFKPSFNWRQEAKDESKDPNAQAMKDKLKDKKVKCRICNGEHFTARCPYKDTMAPIGEAGAAADVAASAADEAAAASQGAAGAGKKGSYVPPALRGAGGAAAAGERMGGKYGERDDLATLRVTNVSEMAEEQELRDMFERFGRVTRVFLAKDRDTGLAKGFAFISFADRSDAVKACAKMDGFGFRHLILRVEFAKKAA
5 | binds | Neurospora crassa eIF3e (protein, UniProt Q7S519 1-443) MASTSPATTNGDVAPANYDLVLKLAPHLDRHMIFPLLEFNAGRLKEDETDKAREILAAKYALLKKTNMTDYVANLYCELEGLKEPPAEYAERRQKVFHQLEKYEQETAKITELLQRDDVVNNLRSDKVANLEFLKKEHDVTIDMVNALYDFGQLQYSCGNYADASELLYRFRVLSTDNDKVSYATWGRLACEILTMNWESAMEELQKVRESIDTRLANNPLAQLQHRTELVHWALFPLFNYDKAREPLLDLFFNAGFINTIQANSPWILRYLTVAVITNRGRAKNAGVHQKQMKDVVRIVKQEAYEYQDPITRFVHALCIDFDFEEAQQQLVLAEEVLRSDFFLLAHADDFVDSARHLIFESYCKIHARISLKDLSARLGLNNDDAEKWIVNLIRDTRLDAKIDYKEGTVVMNHPPSSVYQQVIERTKGGFFRTQVLTAAVAR
6 | binds | Neurospora crassa eIF3i (protein, UniProt Q7RXH4 1-346) MRPILLSGHERALTQIKYNRDGDLLFSVSKDQQICVWFAHNGERLGTYHGHQGAIWTIDVDPTSTILASGSADNTIRLWEIKTGRLLKTWDFPTAVKRVEFSEDGSKLLGVTEKRMGHLGTIVVLDIKLDVDAEQSDEKAMTIVCEDSKATVAGWSYLSKYIIAGHEDGSVSQFDGKNGDLLYNIPIHELNQPITDLQWSHDRTYFITASKDKTSKLITAKDLEVLKTYPADTPLNSATITRKKDFVILGGGQAAMDVTTTSARQGKFEARFYHKIFESEIGRVRGHFGPLNTVAADPTGKSYASGGEDGYVRIHHFDKGYFDFMYEVERERQNKLNQQQQQTISA
7 | binds | Neurospora crassa eIF3f (protein, UniProt Q9P748 1-369) MAVDQESFVHLSRPLAPNVLGFGVSNAPLTVNIQPQAVFSIIDHAVRRDDRDTQSTRVIGALVGVRSEDGSEVEVRSTFAIPHTENEDQVEVDVEYQKNMLALTLKANPRETLLGWYTTSHELNSFSALIQNFFASPETGTFPHPAVHLTIGTEAGATIDTKTYISAPVAVSPERAAESCLFIEVPHKLLFTDAERGALGSVAAAADAESRSAPVVSDIENLAQALETVSDLLERVSGFVGEVLDEERDGNHALGQYLMNALSLAPKVSNLAIENDFNNHIQDVLMVSYLANTIRTQIELSQRLATAKLDEGKEGGEKKDGEGAEGDKKTDGQRGQRGQGGKRGGRSGGAGGRGGREQREPREPREAAE
